Experimental findings from patent US20200054723A1 are described below.

Protein sequences, listed by entry. Tags and fused reporters are not part of them. Residues count along the entry.
UniProt Q9NYZ4, residues 17-363: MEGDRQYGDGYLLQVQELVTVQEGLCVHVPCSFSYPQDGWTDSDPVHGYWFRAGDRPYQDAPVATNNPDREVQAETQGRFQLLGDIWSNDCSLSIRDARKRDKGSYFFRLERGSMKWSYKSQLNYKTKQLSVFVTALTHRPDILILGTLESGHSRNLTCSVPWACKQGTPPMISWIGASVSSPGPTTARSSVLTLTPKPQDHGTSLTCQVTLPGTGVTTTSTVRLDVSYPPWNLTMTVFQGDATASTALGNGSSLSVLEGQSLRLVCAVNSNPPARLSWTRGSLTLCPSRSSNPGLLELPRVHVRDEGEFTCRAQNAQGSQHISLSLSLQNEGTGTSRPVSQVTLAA

No constants are given. Whether binding was seen depends on the method and setting. Some results given as binding are weak or reduced against the parent protein; the word gives no strength.

The target of experiment [1] is recombinant human Siglec-8 extracellular domain (ECD) (human) (UniProt Q9NYZ4). In words: ELISA, coated Siglec-8 ECD. For orientation: ELISA stands for enzyme-linked immunosorbent assay.
For experiment [2], the target named is Dimeric Siglec-8 (human Siglec-8 ECD protein) (human) (UniProt Q9NYZ4). In words: SPR (Biacore), antibody captured, dimeric Siglec-8 as analyte. (In general: In SPR one partner is held on a chip, and binding of the other changes the refractive index at the surface.)

B1: HAKB (antibody, human IgG1, V domains shown)
VH: EVQLVESGGGLVQPGGSLRLSCAASGFSLTIYGAHWVRQAPGKGLEWVSVIWAGGSTNYNSALMSRFTISKDNSKNTVYLQMNSLRAEDTAVYYCARDGSSPYYYSMEYWGQGTTVTVSS
VL: EIILTQSPATLSLSPGERATLSCSATSSVSYMHWFQQKPGQAPRLWIYSTSNLASGVPARFSGSGSGTDYTLTISSLEPEDFAVYYCQQRSSYPFTFGPGTKLDIK
Turning to B1, in experiment [1], the binding entry is given as “binds”.

B2: HEKF IgG1 antibody (antibody, V domains shown)
VH: EVQLVESGGGLVQPGGSLRLSCAASGFSLTIYGAHWVRQAPGKGLEWVGVIWAGGSTNYNSALMSRFTISKDNSKNTVYLQMNSLRAEDTAVYYCARDGSSPYYYSMEYWGQGTTVTVSS
VL: EIVLTQSPATLSLSPGERATLSCSATSSVSYMHWFQQKPGQAPRLLIYSTSNLASGIPARFSGSGSGTDYTLTISSLEPEDFAVYYCQQRSSYPFTFGPGTKLDIKR
With B2, in experiment [2], the binding result was “binds”.

B3: HB2KG (antibody, V domains shown)
VH: QVQLQESGPGLVKPSETLSLTCTVSGFSLTIYGAHWVRQPPGKGLEWLGVIWAGGSTNYNSALMSRLSISKDNSKNQVSLKLSSVTAADTAVYYCARDGSSPYYYSMEYWGQGTLVTVSS
VL: EIVLTQSPATLSLSPGERATLSCSATSSVSYMHWYQQKPGQAPRLLIYSTSNLASGIPARFSGSGSGTDFTLTISSLEPEDFAVYYCQQRSSYPFTFGPGTKLDIK
As for B3, the binding entry in experiment [1] was “binds”.
